In the test the test system is BDF1 mice, Adenocarcinoma 755 s.c., tumor weight T/C. The experiment in a line: NCI In Vivo Anticancer Drug Screen. Data for tumor model Adenocarcinoma 755 (subcutaneous) in B6D2F1 (BDF1) mice. The note with it: T/C endpoint: mean tumor weight, higher T/C = larger tumour; for T/C: evaluated on day 12. A digest of the protocol:
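Tumor-bearing mice receive test compound while controls get vehicle alone. Antitumor effect is scored from survival or tumor dimensions as a T/C quotient.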

[1] abbreviates: dose: 30.0 mg/kg/injection, schedule: Q01DX011 (ip), vehicle: carboxymethylcellulose (CMC).
Setting [2] is: dose: 120.0 mg/kg/injection, schedule: Q01DX011 (ip), vehicle: carboxymethylcellulose (CMC).
[3] abbreviates: dose: 116.0 mg/kg/injection, schedule: Q01DX011 (ip), vehicle: carboxymethylcellulose (CMC).
[4] abbreviates: dose: 50.0 mg/kg/injection, schedule: Q01DX011 (ip), vehicle: carboxymethylcellulose (CMC).
Where [5] appears, read: dose: 100.0 mg/kg/injection, schedule: Q01DX011 (ip), vehicle: carboxymethylcellulose (CMC).
[6] abbreviates: dose: 225.0 mg/kg/injection, schedule: Q01DX011 (ip), vehicle: methylcellulose (MC).
The mark [7] stands for this setting: dose: 400.0 mg/kg/injection, schedule: Q01DX011 (ip), vehicle: carboxymethylcellulose (CMC).
[8] abbreviates: dose: 800.0 mg/kg/injection, schedule: Q01DX011 (ip), vehicle: carboxymethylcellulose (CMC).

For 27 compounds, survivor count and T/C results are on record in PubChem BioAssay AID180 (DTP/NCI, 2004).

The list does not hold the whole screen: it is rich in T/C values a quarter to a half above the control, in often repeated tests (any T/C) and in doses without a T/C. Other doses and runs of a compound stand elsewhere. T/C gives the treated animals as a percentage of the vehicle group. Schedule codes are those of the source, taken here to give the interval after Q, in days (D) or hours (H), and the number of doses after X. Some T/C values carry the count of animals alive at the toxicity check (mostly the fifth day); where none is given, no animal had died by that day. Some entries hold several experiments; the results are listed from low to high. Some doses have a count of surviving animals in place of a T/C: the source holds a T/C of zero for them, seemingly a mark for toxic or unscored doses. Counts of survivors are from the toxicity check (mostly the fifth day) where no day follows; animals may have died later.

In the case of `COc1ccc(CSc2ncnc3nc[nH]c23)cc1`, the survivor count by setting is: (dose: 250.0 mg/kg/injection, schedule: Q01DX011 (ip), vehicle: carboxymethylcellulose (CMC)) 1 of 10; (dose: 500.0 mg/kg/injection, schedule: Q01DX011 (ip), vehicle: carboxymethylcellulose (CMC)) 0 of 10. Regarding `CCOC(=O)NP(=O)(N1CC1)N1CC1`, the survivor count (dose: 20.0 mg/kg/injection, schedule: Q01DX011 (ip), vehicle: carboxymethylcellulose (CMC)) is on record as 6 of 10. Take `Nc1nc(SCc2ccc([N+](=O)[O-])cc2)c2ncn(C3OC(CO)C(O)C3O)c2n1` (configuration not stated): the survivor count (dose: 150.0 mg/kg/injection, schedule: Q01DX011 (ip), vehicle: methylcellulose (MC)) is reported as 3 of 10. As to `Cn1c(Cl)nc2nc(Cl)nc(Cl)c21`, the survivor count is, setting by setting: (dose: 15.0 mg/kg/injection, schedule: Q01DX011 (ip), vehicle: carboxymethylcellulose (CMC)) 6 of 10; under setting [1], 0 of 10; (dose: 60.0 mg/kg/injection, schedule: Q01DX011 (ip), vehicle: carboxymethylcellulose (CMC)) 0 of 10; under setting [2], 0 of 10; (dose: 240.0 mg/kg/injection, schedule: Q01DX011 (ip), vehicle: carboxymethylcellulose (CMC)) 0 of 10.

Turning to `Cn1c(=O)c2[nH]cnc2n(C)c1=O`, under setting [3], the T/C is 131 % of control [8 of 10 alive] and the survivor count is given as 6 of 10. The survivor count (dose: 126.0 mg/kg/injection, schedule: Q01DX011 (ip), vehicle: carboxymethylcellulose (CMC)) was 2 of 10. In the case of `C[C@H](CCC(=O)O)[C@H]1CC[C@H]2[C@@H]3[C@H](O)C[C@@H]4C[C@H](O)CC[C@]4(C)[C@H]3C[C@H](O)[C@]12C` (tested in a mixture with another compound), the survivor count (dose: 160.0 mg/kg/injection, schedule: Q01DX011 (ip), vehicle: methylcellulose (MC)) is 3 of 10. Regarding `COc1cc(C=O)cc(O)c1O`, the survivor count (dose: 500.0 mg/kg/injection, schedule: Q01DX011 (ip), vehicle: methylcellulose (MC)) was 4 of 10. As for `C[C@@H]1CN(C(=O)CCOS(C)(=O)=O)[C@@H](C)CN1C(=O)CCOS(C)(=O)=O`, the survivor count reads like this: under setting [2], 5 of 10; (dose: 480.0 mg/kg/injection, schedule: Q01DX011 (ip), vehicle: carboxymethylcellulose (CMC)) 0 of 10. With `CC[C@H](c1ccc(O)cc1)[C@@H](CC)c1ccc(O)cc1`, under “dose: 220.0 mg/kg/injection, schedule: Q01DX011 (sc), vehicle: steroid suspending solution”, the survivor count was 2 of 10. As for `CCCCn1cnc2c(SC)nc(N)nc21`, under setting [1], the T/C is recorded as 7, 23, 24, 30 % of control. For the same compound, the survivor count (dose: 230.0 mg/kg/injection, schedule: Q01DX011 (ip), vehicle: carboxymethylcellulose (CMC)) is 5 of 10.

`CCC(=O)O[C@H]1CC[C@H]2[C@@H]3CC[C@H]4CC(=O)[C@H](C)C[C@]4(C)[C@H]3CC[C@]12C`: the T/C reads like this: (dose: 88.25 mg/kg/injection, schedule: Q01DX011 (sc), vehicle: steroid suspending solution) 131 % of control; (dose: 125.0 mg/kg/injection, schedule: Q01DX011 (sc), vehicle: steroid suspending solution) 131 % of control; (dose: 500.0 mg/kg/injection, schedule: Q01DX011 (sc), vehicle: steroid suspending solution) 138 % of control. Further, the survivor count is, setting by setting: (dose: 353.0 mg/kg/injection, schedule: Q01DX011 (sc), vehicle: steroid suspending solution) 4 of 10; (dose: 1000.0 mg/kg/injection, schedule: Q01DX011 (sc), vehicle: steroid suspending solution) 3 of 10. Consider `COc1ccc(C[n+]2cc([O-])on2)cc1`, for which the T/C is, setting by setting: (dose: 25.0 mg/kg/injection, schedule: Q01DX011 (ip), vehicle: carboxymethylcellulose (CMC)) 18, 30, 47 [9 of 10 alive], 72 [9 of 10 alive], 108 % of control; under setting [4], 18 and 83 % of control. Moreover, the survivor count is 2 of 10 and 4 of 10 under setting [4]; 2 of 10 under setting [5]. As for `Brc1ncc2[nH]cnc2n1`, the survivor count under setting [6] is reported as 2 of 10. Take `COc1ccc(C(=O)OCC2OC(n3cnc4c(=S)nc[nH]c43)C(OC(=O)c3ccc(OC)cc3)C2OC(=O)c2ccc(OC)cc2)cc1` (configuration not stated): the survivor count is listed as 0 of 10 under setting [7] and 0 of 10 under setting [8]. Take `CCOC(=O)C(Cc1ccc(N(CCCl)CCCl)cc1)NC=O` (configuration not stated): the survivor count (dose: 320.0 mg/kg/injection, schedule: Q01DX011 (ip), vehicle: carboxymethylcellulose (CMC)) was 0 of 10. Consider `Cn1c(=O)c2c(nc(C(=N)SCC(=O)O)n2C)n(C)c1=O`, for which the survivor count by setting is: (dose: 75.0 mg/kg/injection, schedule: Q01DX011 (ip), vehicle: methylcellulose (MC)) 5 of 10; under setting [6], 1 of 10.

Regarding `CN1CCC(OC(N)=O)CC1`, under “dose: 750.0 mg/kg/injection, schedule: Q01DX011 (ip), vehicle: carboxymethylcellulose (CMC)”, the survivor count is reported as 4 of 10.

Take `O=c1[nH]cc(N(CCCl)CCCl)c(=O)[nH]1`: the survivor count (dose: 1.67 mg/kg/injection, schedule: Q01DX011 (ip), vehicle: carboxymethylcellulose (CMC)) is 3 of 10. On to `Cc1ccc(C(=O)OCC2OC(n3cnc4c(=S)nc(N)[nH]c43)C(OC(=O)c3ccc(C)cc3)C2OC(=O)c2ccc(C)cc2)cc1` (configuration not stated), for which the survivor count is reported as 6 of 10 under setting [5] and 0 of 10 under setting [8]. For the compound `CCCCNC(=O)c1n[se]nc1N`, the survivor count (dose: 8.0 mg/kg/injection, schedule: Q01DX011 (ip), vehicle: carboxymethylcellulose (CMC)) is on record as 2 of 10. For the compound `CC[C@]1(O)C[C@H]2CN(CCc3c([nH]c4ccccc34)[C@@](C(=O)OC)(c3cc4c(cc3OC)N(C=O)[C@H]3[C@@](O)(C(=O)OC)[C@H](OC(C)=O)[C@]5(CC)C=CCN6CC[C@]43[C@@H]65)C2)C1`, the survivor count (dose: 0.5 mg/kg/injection, schedule: Q01DX011 (ip), vehicle: saline) is on record as 5 of 10. Regarding `NC(CS)C(=O)O` (configuration not stated) (tested in a mixture with another compound), the survivor count is listed as 2 of 10 (dose: 500.0 mg/kg/injection, schedule: Q01DX011 (ip), vehicle: saline) and 4 of 10 (dose: 520.0 mg/kg/injection, schedule: Q01DX011 (ip), vehicle: saline). In the case of `Cc1ccc(C(=O)[O][Hg][CH2]C2COC([CH2][Hg][O]C(=O)c3ccc(C)cc3)CO2)cc1` (configuration not stated), the survivor count is 5 of 10 and 6 of 10 (dose: 6.25 mg/kg/injection, schedule: Q01DX011 (ip), vehicle: methylcellulose (MC)); 2 of 10 and 5 of 10 (dose: 25.0 mg/kg/injection, schedule: Q01DX011 (ip), vehicle: methylcellulose (MC)); 1 of 10 (dose: 50.0 mg/kg/injection, schedule: Q01DX011 (ip), vehicle: methylcellulose (MC)); 4 of 10 (dose: 100.0 mg/kg/injection, schedule: Q01DX011 (ip), vehicle: methylcellulose (MC)).

As for `O=S(=O)(Nc1ccccc1)c1ccc(C2CC3(Cl)C(Cl)=C(Cl)C2(Cl)C3(Cl)Cl)cc1` (configuration not stated), the survivor count under setting [6] is given as 5 of 12.

For `CCC(C)Sc1nc(N)nc2c1ncn2C1OC(CO)C(O)C1O` (configuration not stated), the survivor count runs as follows: under setting [7], 1 of 10; (dose: 600.0 mg/kg/injection, schedule: Q01DX011 (ip), vehicle: carboxymethylcellulose (CMC)) 0 of 10.

As for `CC1CCC(n2cnc3c([N+](C)(C)C)ncnc32)O1` (configuration not stated), where the note is “dose: 240.0 mg/kg/injection, schedule: Q01DX011 (ip), vehicle: saline”, the survivor count is on record as 0 of 10. Take `[Cl][Pt+2]([Cl])([Cl])[Cl].[Na+].[S-]c1ncnc2nc[nH]c12.[S-]c1ncnc2nc[nH]c12`: the survivor count by setting is: (dose: 56.0 mg/kg/injection, schedule: Q01DX011 (ip), vehicle: carboxymethylcellulose (CMC)) 3 of 10; (dose: 150.0 mg/kg/injection, schedule: Q01DX011 (ip), vehicle: carboxymethylcellulose (CMC)) 0 of 10.
